Paper doi:10.1101/2024.03.28.587165
Read-outs that look alike come from different tables or passages of the source. Results are given in words; binding and its absence hold for the method and conditions named. In cells and extracts the contact can be indirect. Here binding means that the protein was enriched with, or labelled near, the bait; the list need not be complete. For part of these data: No binding means not detected with the bait.

Amino acid sequences for entries named in this document (tags omitted). A change or cut given only in a name is not applied to a line headed by its entry.
UniProt Q9SAF2: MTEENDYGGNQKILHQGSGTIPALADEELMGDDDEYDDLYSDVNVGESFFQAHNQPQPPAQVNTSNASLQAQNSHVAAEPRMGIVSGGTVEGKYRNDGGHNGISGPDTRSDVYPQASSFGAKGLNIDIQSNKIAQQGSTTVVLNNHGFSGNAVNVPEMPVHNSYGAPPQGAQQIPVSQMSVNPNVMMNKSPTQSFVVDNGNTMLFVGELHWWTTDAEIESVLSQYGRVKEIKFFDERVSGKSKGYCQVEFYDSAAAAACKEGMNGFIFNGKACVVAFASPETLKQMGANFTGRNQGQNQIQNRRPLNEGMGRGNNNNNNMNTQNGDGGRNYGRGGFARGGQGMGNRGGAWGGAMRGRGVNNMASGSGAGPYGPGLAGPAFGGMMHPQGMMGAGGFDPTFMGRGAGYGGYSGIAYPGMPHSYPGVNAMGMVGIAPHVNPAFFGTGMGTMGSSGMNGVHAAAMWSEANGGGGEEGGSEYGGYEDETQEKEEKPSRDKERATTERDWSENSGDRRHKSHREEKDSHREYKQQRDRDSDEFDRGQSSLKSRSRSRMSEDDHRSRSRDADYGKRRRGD
UniProt Q8GXS3: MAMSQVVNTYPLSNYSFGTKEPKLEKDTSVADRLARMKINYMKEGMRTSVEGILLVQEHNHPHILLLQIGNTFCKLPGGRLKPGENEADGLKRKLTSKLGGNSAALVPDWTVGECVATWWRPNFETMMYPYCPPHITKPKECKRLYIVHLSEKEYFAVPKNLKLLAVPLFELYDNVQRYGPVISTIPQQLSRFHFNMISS
UniProt Q94AF0: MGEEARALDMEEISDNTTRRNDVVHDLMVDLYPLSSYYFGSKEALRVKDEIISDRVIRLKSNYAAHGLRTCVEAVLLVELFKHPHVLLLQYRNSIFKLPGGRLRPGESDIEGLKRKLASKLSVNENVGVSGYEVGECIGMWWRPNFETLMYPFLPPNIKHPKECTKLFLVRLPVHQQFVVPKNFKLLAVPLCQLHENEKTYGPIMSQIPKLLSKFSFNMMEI

How the values were obtained:
Assay in all cases: affinity purification with mass spectrometry
[1] = biological target: AtCFI59 tagged with GFP at its N-terminus (GFP-AtCFI59) (Arabidopsis thaliana) (UniProt Q9SAF2)
[2] = biological target: AtCFI25a tagged with GFP at its N-terminus (GFP-AtCFI25a) (Arabidopsis thaliana) (UniProt Q8GXS3)
[3] = biological target: AtCFI59 tagged with GFP at its N-terminus (GFP-AtCFI59) (Arabidopsis thaliana) (UniProt Q9SAF2); remark: listed apart in the source
[4] = biological target: AtCFI25a tagged with GFP at its N-terminus (GFP-AtCFI25a) (Arabidopsis thaliana) (UniProt Q8GXS3); remark: listed apart in the source
[5] = biological target: AtCFI68 tagged with GFP at its C-terminus (AtCFI68-GFP), in transgenic plants (Arabidopsis thaliana)

AtCFI25a (endogenous) (from UniProt Q8GXS3)
binding [1]: binds

AtCFI25b (endogenous) (from UniProt Q94AF0)
binding [1]: no binding
binding [2]: no binding

B1: AtCPSF30 (endogenous) (protein, UniProt A9LNK9-2 1-250)
chain: MEDADGLSFDFEGGLDSGPVQNTASVPVAPPENSSSAAVNVAPTYDHSSATVAGAGRGRSFRQTVCRHWLRGLCMKGDACGFLHQFDKARMPICRFFRLYGECREQDCVYKHTNEDIKECNMYKLGFCPNGPDCRYRHAKLPGPPPPVEEVLQKIQQLTTYNYGTNRLYQARNVAPQLQDRPQGQVPMQGQPQESGNLQQQQQQQPQQSQHQVSQTLIPNPADQTNRTSHPLPQGVNRCVQSPKVFNWVL
binding [3]: binds
binding [4]: binds
binding [5]: binds

B2: AtFIP1 (endogenous) (protein, UniProt F4KDH9 1-1196)
chain: MEEDDEFGDLYSDVLQPFQPPVVLPPPPPLPHRSIDLNLRSQDQDVSEPNSAPISRVSDNDAVKLSTQDATRQAIVDGGGDDKDMSFDIEEPDADSTPTIPGLFVTGALPGLATDRGVSQVTTRIEQQVGGGGDGGYGGQGEGDDWDSDSEDDLQIVLNDSSRNVMIGGADRRSRMGDNEDDDDEDDEDPLVIVADTDPNQPMEEQMWGEDGLQGIEGDGKDGGEAGKGSGPGGATGPPKAGYSSHGYHPFHSQFKYVRPGAAPIPGGAASVGGPSSGQVRPPANLGPMAGRGRGDWRPLGMRNASAAQKGFHQPWGSNTAGRGLDFTLPSHKTIFEVDIDSFEEKPWRYPGVEMTDYFNFGLNEESWKDYCKQLDQHRIQTTMQSRIRVYESGRTDQGYDPDLPPELAAATGAQGVPVDSSNLVKPDSVQGDSAKVPANVRPTLPPGRPIPVETGSGERLPSIDTRAPRMRDLDAIIEIVCQDSHEDEPSGENGTDQADSSLPGENVPVETSYVNNKRPDTESAEHSPAQDEPHKNLLKKQDDEISRSTDSGQSFRSSSPVGDRGTRSSSVDREDVGGEAGKDAEMGEELKMSFTSPQSAVQEDDGGESKTERSSESSKARSGSHRDFQQEEDVIQDKHSSRPANNRKQYDNNAPHQSRKNQDRGKEMERTRAASKGGRENSNPHMELDSTYIYSIASREDFDKRKERDVDGAVWRRKEDDPYSRRGGDEGSRKRDREDDPGFRQRGKMRENEIRSKDDQVPSRKHMDDAGMRNIYEPDDHINKRRKDEEYLRRSRPEKNEISYGQRESMSRVKRERDDRLEHQKRDVQHKIRDDFDDHGSLRQRDDIYMQRDGNERLRERDVLDKLKLPHEDGISARGRERQVAVRGHRGSEDRSSRMKDEYKASDKEHVTKDTLRHAKQTKRRDYPGEESSSHHRGHEDFSARTDNIVNNEKKPRQERTGAKIDKFIDTLDGQRLQDRKHKDSRRKIKEQREGTESLSKQGEQNGSSVVTGSKGTNDARNCRSEIPHQPNTAKRHKENASSGDEIHDSKRGRTKLERWASHKEREDAVSAKSSSISSKLEEKENNTNGRLSEPVHGSIGKSRDVTEEKIGHDLADTKDGSEKGPGDRHLDTVEKLKKRSERFKLPMPTEKDTTGVKKMESETLPSAKIEGPVDSEGEYVWDERSCVRIGREYA
binding [3]: binds
binding [4]: binds
binding [5]: binds
